Measured values taken from paper doi:10.1101/2020.10.21.349357.
No constants are given. Whether binding was seen depends on the method and setting. In cells and extracts the contact can be indirect. Binding calls can cover weak binding; strength is not graded here. Sequences can lack the tags named with a protein.

Target: Flag-NEMO coil zipper (COZI) domain
Test: co-IP

- binding: binds
B1: HA-tagged N4BP1 (full length) (protein, UniProt O75113 1-896)
chain: MAARAVLDEFTAPAEKAELLEQSRGRIEGLFGVSLAVLGALGAEEPLPARIWLQLCGAQEAVHSAKEYIKGICEPELEERECYPKDMHCIFVGAESLFLKSLIQDTCADLCILDIGLLGIRGSAEAVVMARSHIQQFVKLFENKENLPSSQKESEVKREFKQFVEAHADNYTMDLLILPTSLKKELLTLTQGEENLFETGDDEVIEMRDSQQTEFTQNAATGLNISRDETVLQEEARNKAGTPVSELTKQMDTVLSSSPDVLFDPINGLTPDEEALSNERICQKRRFSDSEERHTKKQFSLENVQEGEILHDAKTLAGNVIADLSDSSADSENLSPDIKETTEEMEYNILVNFFKTMGYSQEIVEKVIKVYGPSTEPLLLLEEIEKENKRFQEDREFSAGTVYPETNKTKNKGVYSSTNELTTDSTPKKTQAHTQQNMVEKFSQLPFKVEAKPCTSNCRINTFRTVPIEQKHEVWGSNQNYICNTDPETDGLSPSVASPSPKEVNFVSRGASSHQPRVPLFPENGLHQQPEPLLPNNMKSACEKRLGCCSSPHSKPNCSTLSPPMPLPQLLPSVTDARSAGPSDHIDSSVTGVQRFRDTLKIPYKLELKNEPGRTDLKHIVIDGSNVAITHGLKKFFSCRGIAIAVEYFWKLGNRNITVFVPQWRTRRDPNVTEQHFLTQLQELGILSLTPARMVFGERIASHDDRFLLHLADKTGGIIVTNDNFREFVNESVSWREIITKRLLQYTFVGDIFMVPDDPLGRSGPRLEEFLQKEVCLRDMQPLLSALPNVGMFDPSFRVPGTQAASTSHQPPTRIQGAPSSHWLPQQPHFPLLPALPSLQQNLPMPAQRSSAETNELREALLKIFPDSEQRLKIDQILVAHPYMKDLNALSAMVLD
